Source: the supplement of paper PMC8612539
In brackets after ≈: the same amount, converted by molar mass. Further values from the same series stand in other lists.

Tested on: Escherichia coli
Assay: minimum inhibitory concentration (MIC)
Experimental: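 Broth microdilution MIC (Sensititre BOPO7F bovine plate, CLSI methods) of 19 antimicrobials against field isolates of P. multocida, M. haemolytica, H. somni (deep nasopharyngeal swabs) and E. coli, Enterococcus spp. (rectal swabs) from weaned dairy heifers. Incubation 16-24 h at 35 C. MIC is the lowest concentration preventing visible growth. Values with <= or > lie at the tested range limits. Trimethoprim-sulfamethoxazole is given as the trimethoprim component of a 1:19 mixture.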

CC[C@H]1OC(=O)C[C@@H](O)[C@H](C)[C@@H](O[C@@H]2O[C@H](C)[C@@H](O)[C@H](N(C)C)[C@H]2O)[C@@H](CCN2CCCCC2)C[C@@H](C)C(=O)/C=C/C(C)=C/[C@@H]1CN1CCCCC1 [Tildipirosin]
Details | minimum inhibitory concentration [µg/mL]
isolate (source animal id): 1 | 8 (≈ 10.9 µM)
isolate (source animal id): 2 | 4 (≈ 5.45 µM)
isolate (source animal id): 3 | 4 (≈ 5.45 µM)
isolate (source animal id): 4 | 8 (≈ 10.9 µM)
isolate (source animal id): 5 | 8 (≈ 10.9 µM)
isolate (source animal id): 6 | 4 (≈ 5.45 µM)
isolate (source animal id): 7 | 4 (≈ 5.45 µM)
isolate (source animal id): 17 | 4 (≈ 5.45 µM)
isolate (source animal id): 18 | 8 (≈ 10.9 µM)
isolate (source animal id): 19 | 4 (≈ 5.45 µM)
isolate (source animal id): 20 | 4 (≈ 5.45 µM)
isolate (source animal id): 21 | 8 (≈ 10.9 µM)
isolate (source animal id): 22 | 4 (≈ 5.45 µM)
isolate (source animal id): 23 | 8 (≈ 10.9 µM)
isolate (source animal id): 24 | 4 (≈ 5.45 µM)
isolate (source animal id): 25 | 8 (≈ 10.9 µM)
isolate (source animal id): 26 | 8 (≈ 10.9 µM)
isolate (source animal id): 27 | 4 (≈ 5.45 µM)
isolate (source animal id): 28 | 4 (≈ 5.45 µM)
isolate (source animal id): 29 | 4 (≈ 5.45 µM)
isolate (source animal id): 30 | 4 (≈ 5.45 µM)
isolate (source animal id): 31 | 4 (≈ 5.45 µM)
isolate (source animal id): 32 | 2 (≈ 2.72 µM)
isolate (source animal id): 33 | 4 (≈ 5.45 µM)
isolate (source animal id): 34 | 2 (≈ 2.72 µM)
isolate (source animal id): 35 | 4 (≈ 5.45 µM)
isolate (source animal id): 36 | 4 (≈ 5.45 µM)
isolate (source animal id): 37 | 2 (≈ 2.72 µM)
isolate (source animal id): 38 | 8 (≈ 10.9 µM)
isolate (source animal id): 39 | 4 (≈ 5.45 µM)
isolate (source animal id): 40 | 2 (≈ 2.72 µM)
isolate (source animal id): 41 | 4 (≈ 5.45 µM)
isolate (source animal id): 42 | 4 (≈ 5.45 µM)
isolate (source animal id): 43 | 4 (≈ 5.45 µM)
isolate (source animal id): 44 | 4 (≈ 5.45 µM)
isolate (source animal id): 45 | 4 (≈ 5.45 µM)
isolate (source animal id): 46 | 2 (≈ 2.72 µM)
isolate (source animal id): 47 | 4 (≈ 5.45 µM)
isolate (source animal id): 48 | 4 (≈ 5.45 µM)
isolate (source animal id): 49 | 4 (≈ 5.45 µM)
isolate (source animal id): 50 | 2 (≈ 2.72 µM)
isolate (source animal id): 51 | 8 (≈ 10.9 µM)
isolate (source animal id): 52 | 4 (≈ 5.45 µM)
isolate (source animal id): 53 | 4 (≈ 5.45 µM)
isolate (source animal id): 54 | 4 (≈ 5.45 µM)
isolate (source animal id): 55 | 4 (≈ 5.45 µM)
isolate (source animal id): 56 | 4 (≈ 5.45 µM)
isolate (source animal id): 57 | 8 (≈ 10.9 µM)
isolate (source animal id): 58 | 8 (≈ 10.9 µM)
isolate (source animal id): 59 | 8 (≈ 10.9 µM)
isolate (source animal id): 60 | 4 (≈ 5.45 µM)
isolate (source animal id): 61 | 4 (≈ 5.45 µM)
isolate (source animal id): 62 | 4 (≈ 5.45 µM)
isolate (source animal id): 63 | 4 (≈ 5.45 µM)
isolate (source animal id): 64 | 8 (≈ 10.9 µM)
isolate (source animal id): 65 | 8 (≈ 10.9 µM)
isolate (source animal id): 66 | 16 (≈ 21.8 µM)
isolate (source animal id): 67 | 2 (≈ 2.72 µM)
isolate (source animal id): 68 | 4 (≈ 5.45 µM)
isolate (source animal id): 69 | 4 (≈ 5.45 µM)
isolate (source animal id): 70 | 4 (≈ 5.45 µM)
isolate (source animal id): 71 | 8 (≈ 10.9 µM)
isolate (source animal id): 72 | 4 (≈ 5.45 µM)
isolate (source animal id): 73 | 4 (≈ 5.45 µM)
isolate (source animal id): 74 | 4 (≈ 5.45 µM)
isolate (source animal id): 75 | 4 (≈ 5.45 µM)
isolate (source animal id): 76 | 8 (≈ 10.9 µM)
isolate (source animal id): 77 | 4 (≈ 5.45 µM)
isolate (source animal id): 78 | 8 (≈ 10.9 µM)
isolate (source animal id): 79 | 4 (≈ 5.45 µM)
isolate (source animal id): 80 | 4 (≈ 5.45 µM)
isolate (source animal id): 81 | 2 (≈ 2.72 µM)
isolate (source animal id): 82 | 4 (≈ 5.45 µM)
isolate (source animal id): 83 | 2 (≈ 2.72 µM)
isolate (source animal id): 84 | 4 (≈ 5.45 µM)
isolate (source animal id): 85 | 4 (≈ 5.45 µM)
isolate (source animal id): 86 | 4 (≈ 5.45 µM)
isolate (source animal id): 87 | 4 (≈ 5.45 µM)
isolate (source animal id): 88 | 4 (≈ 5.45 µM)
isolate (source animal id): 89 | 4 (≈ 5.45 µM)
isolate (source animal id): 90 | 4 (≈ 5.45 µM)
isolate (source animal id): 91 | 4 (≈ 5.45 µM)
isolate (source animal id): 92 | 4 (≈ 5.45 µM)
isolate (source animal id): 93 | 4 (≈ 5.45 µM)
isolate (source animal id): 94 | 2 (≈ 2.72 µM)
isolate (source animal id): 95 | 4 (≈ 5.45 µM)
isolate (source animal id): 96 | 4 (≈ 5.45 µM)
isolate (source animal id): 97 | 4 (≈ 5.45 µM)
isolate (source animal id): 189 | 4 (≈ 5.45 µM)
isolate (source animal id): 190 | 2 (≈ 2.72 µM)
isolate (source animal id): 191 | 4 (≈ 5.45 µM)
isolate (source animal id): 192 | 4 (≈ 5.45 µM)
isolate (source animal id): 193 | 4 (≈ 5.45 µM)
isolate (source animal id): 194 | 4 (≈ 5.45 µM)
isolate (source animal id): 195 | 4 (≈ 5.45 µM)
isolate (source animal id): 196 | 4 (≈ 5.45 µM)
isolate (source animal id): 197 | 4 (≈ 5.45 µM)
isolate (source animal id): 198 | 2 (≈ 2.72 µM)
isolate (source animal id): 199 | 4 (≈ 5.45 µM)
isolate (source animal id): 200 | 4 (≈ 5.45 µM)
isolate (source animal id): 201 | 4 (≈ 5.45 µM)
isolate (source animal id): 202 | 4 (≈ 5.45 µM)
isolate (source animal id): 203 | 8 (≈ 10.9 µM)
isolate (source animal id): 204 | 4 (≈ 5.45 µM)
isolate (source animal id): 205 | 8 (≈ 10.9 µM)
isolate (source animal id): 206 | 4 (≈ 5.45 µM)
isolate (source animal id): 207 | 4 (≈ 5.45 µM)
isolate (source animal id): 208 | 4 (≈ 5.45 µM)
isolate (source animal id): 209 | 8 (≈ 10.9 µM)
isolate (source animal id): 210 | 4 (≈ 5.45 µM)
isolate (source animal id): 211 | 4 (≈ 5.45 µM)
isolate (source animal id): 212 | 2 (≈ 2.72 µM)
isolate (source animal id): 213 | 8 (≈ 10.9 µM)
isolate (source animal id): 214 | 8 (≈ 10.9 µM)
isolate (source animal id): 215 | 4 (≈ 5.45 µM)
isolate (source animal id): 216 | 2 (≈ 2.72 µM)
isolate (source animal id): 217 | ≤ 1
isolate (source animal id): 218 | 4 (≈ 5.45 µM)
isolate (source animal id): 219 | 4 (≈ 5.45 µM)
isolate (source animal id): 220 | 4 (≈ 5.45 µM)
